Earlier results in patent publication US20070190544A1, “Methods of screening for resistance to microtuble-targeting drugs” (Emory University, priority 2005, published 2007).
Some of these results come from one statement about several compounds together.

Test system: KB-3-1 epidermal cells
Conditions: Asp26Glu β-tubulin mutation; listed as taxotere; cited from earlier work

CC(=O)O[C@@]12CO[C@@H]1C[C@H](O)[C@@]1(C)C(=O)[C@H](O)C3=C(C)[C@@H](OC(=O)[C@H](O)[C@@H](NC(=O)OC(C)(C)C)c4ccccc4)C[C@@](O)([C@@H](OC(=O)c4ccccc4)[C@H]21)C3(C)C [Taxotere]
fold resistance / cross-resistance: 3- to 5 fold
